Laboratory results reported in US4113946A, “Δ^2,3 -1,4-Morpholine-2-carboxylic acid derivatives as antibacterial agents” (Bristol-Myers Company, priority 1977, dated 1978).

Test: in vivo
Conditions: mouse, po, 100 mg/kg

CC1=C(C(=O)O)N2C(=O)[C@@H](NC(=O)[C@H](N)c3ccccc3)[C@H]2SC1 [Cephalexin, cephalexin, reference compound]
concentration at 0.5 h: 42400 ng/mL
concentration at 1 h: 23700 ng/mL
concentration at 2 h: 9800 ng/mL
concentration at 3.5 h: 4000 ng/mL
